# Library screen at single concentrations

Amino acid sequences for entries named in this document (tags omitted). Residues count along the entry.
UniProt Q4DA54, 1-478: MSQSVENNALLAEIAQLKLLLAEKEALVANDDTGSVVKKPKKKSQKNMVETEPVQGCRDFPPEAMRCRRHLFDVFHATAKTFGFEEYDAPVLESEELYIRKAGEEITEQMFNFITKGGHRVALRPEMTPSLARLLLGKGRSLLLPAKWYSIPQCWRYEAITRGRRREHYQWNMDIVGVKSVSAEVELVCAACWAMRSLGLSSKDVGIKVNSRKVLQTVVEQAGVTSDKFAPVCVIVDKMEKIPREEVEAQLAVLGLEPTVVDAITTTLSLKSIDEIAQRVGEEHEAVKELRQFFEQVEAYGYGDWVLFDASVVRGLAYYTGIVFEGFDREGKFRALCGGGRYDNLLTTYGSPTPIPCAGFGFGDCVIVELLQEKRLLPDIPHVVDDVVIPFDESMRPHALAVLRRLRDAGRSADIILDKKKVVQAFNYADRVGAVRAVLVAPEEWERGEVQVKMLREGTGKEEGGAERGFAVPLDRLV
UniProt I6X8D2, whole entry: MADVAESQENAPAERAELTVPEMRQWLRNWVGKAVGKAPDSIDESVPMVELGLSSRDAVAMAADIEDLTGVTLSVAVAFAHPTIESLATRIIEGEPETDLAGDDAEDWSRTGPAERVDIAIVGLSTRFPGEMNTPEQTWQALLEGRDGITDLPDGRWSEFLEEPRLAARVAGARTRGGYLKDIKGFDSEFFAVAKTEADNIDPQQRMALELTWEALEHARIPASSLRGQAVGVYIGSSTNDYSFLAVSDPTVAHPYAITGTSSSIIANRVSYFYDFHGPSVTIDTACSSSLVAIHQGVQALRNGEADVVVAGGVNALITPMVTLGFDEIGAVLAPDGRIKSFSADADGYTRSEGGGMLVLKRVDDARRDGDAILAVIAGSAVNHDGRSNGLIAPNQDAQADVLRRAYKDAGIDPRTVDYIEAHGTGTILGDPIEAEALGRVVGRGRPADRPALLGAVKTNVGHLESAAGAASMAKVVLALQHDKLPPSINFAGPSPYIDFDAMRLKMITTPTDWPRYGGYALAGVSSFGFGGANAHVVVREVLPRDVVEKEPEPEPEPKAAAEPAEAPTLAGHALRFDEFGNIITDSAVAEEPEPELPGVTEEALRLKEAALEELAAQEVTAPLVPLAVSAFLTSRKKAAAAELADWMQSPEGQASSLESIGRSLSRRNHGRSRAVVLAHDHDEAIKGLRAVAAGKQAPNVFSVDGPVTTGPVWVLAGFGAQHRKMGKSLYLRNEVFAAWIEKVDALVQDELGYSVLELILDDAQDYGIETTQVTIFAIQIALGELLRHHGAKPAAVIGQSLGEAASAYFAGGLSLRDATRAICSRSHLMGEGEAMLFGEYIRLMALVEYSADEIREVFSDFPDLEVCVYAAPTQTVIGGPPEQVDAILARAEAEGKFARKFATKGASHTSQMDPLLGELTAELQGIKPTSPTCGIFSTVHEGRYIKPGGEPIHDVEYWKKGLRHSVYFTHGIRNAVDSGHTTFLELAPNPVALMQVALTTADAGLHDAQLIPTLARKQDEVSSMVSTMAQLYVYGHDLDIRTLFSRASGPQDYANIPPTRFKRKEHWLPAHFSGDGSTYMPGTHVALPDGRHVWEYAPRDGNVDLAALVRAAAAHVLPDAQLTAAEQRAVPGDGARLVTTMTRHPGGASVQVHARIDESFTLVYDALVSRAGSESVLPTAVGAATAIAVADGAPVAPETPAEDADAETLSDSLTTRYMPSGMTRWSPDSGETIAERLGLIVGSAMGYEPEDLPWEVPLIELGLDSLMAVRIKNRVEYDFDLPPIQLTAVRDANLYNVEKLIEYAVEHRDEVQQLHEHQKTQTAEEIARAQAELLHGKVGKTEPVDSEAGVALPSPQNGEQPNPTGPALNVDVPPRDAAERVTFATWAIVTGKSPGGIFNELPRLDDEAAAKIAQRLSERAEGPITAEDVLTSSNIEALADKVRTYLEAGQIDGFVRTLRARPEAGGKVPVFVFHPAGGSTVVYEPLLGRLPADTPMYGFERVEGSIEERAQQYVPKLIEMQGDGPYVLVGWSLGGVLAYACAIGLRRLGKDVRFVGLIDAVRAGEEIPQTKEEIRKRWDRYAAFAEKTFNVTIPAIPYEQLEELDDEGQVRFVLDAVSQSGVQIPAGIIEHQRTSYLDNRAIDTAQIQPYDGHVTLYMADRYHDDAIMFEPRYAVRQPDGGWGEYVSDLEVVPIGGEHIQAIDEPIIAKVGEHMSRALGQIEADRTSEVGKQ
UniProt P9WNZ1, whole entry: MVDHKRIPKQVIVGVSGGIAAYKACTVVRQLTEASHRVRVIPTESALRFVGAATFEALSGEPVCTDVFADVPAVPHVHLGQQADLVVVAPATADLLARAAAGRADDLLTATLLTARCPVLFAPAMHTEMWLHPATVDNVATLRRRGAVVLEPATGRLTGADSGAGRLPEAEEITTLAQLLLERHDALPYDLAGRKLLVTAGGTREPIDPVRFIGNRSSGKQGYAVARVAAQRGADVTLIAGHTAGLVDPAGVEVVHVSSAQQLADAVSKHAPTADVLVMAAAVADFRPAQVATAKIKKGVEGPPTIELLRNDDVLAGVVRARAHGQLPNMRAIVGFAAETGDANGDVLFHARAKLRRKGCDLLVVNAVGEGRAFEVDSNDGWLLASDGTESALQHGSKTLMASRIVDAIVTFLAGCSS
UniProt Q8IDJ8, 1-583: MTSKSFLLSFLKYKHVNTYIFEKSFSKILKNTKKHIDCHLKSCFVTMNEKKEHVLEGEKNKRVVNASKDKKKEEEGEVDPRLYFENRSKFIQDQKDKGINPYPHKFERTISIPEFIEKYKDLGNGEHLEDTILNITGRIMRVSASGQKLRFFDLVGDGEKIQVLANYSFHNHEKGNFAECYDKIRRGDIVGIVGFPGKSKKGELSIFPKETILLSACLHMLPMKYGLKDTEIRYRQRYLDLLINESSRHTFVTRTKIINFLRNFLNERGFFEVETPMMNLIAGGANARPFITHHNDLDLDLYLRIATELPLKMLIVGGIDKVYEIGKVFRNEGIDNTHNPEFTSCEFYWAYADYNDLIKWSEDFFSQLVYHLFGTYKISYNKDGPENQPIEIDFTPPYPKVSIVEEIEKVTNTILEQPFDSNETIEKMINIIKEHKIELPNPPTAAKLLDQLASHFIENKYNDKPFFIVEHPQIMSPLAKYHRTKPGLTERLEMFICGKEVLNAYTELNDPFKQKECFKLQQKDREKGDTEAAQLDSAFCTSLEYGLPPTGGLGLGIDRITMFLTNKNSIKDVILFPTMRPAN
UniProt P9WFT3, whole entry: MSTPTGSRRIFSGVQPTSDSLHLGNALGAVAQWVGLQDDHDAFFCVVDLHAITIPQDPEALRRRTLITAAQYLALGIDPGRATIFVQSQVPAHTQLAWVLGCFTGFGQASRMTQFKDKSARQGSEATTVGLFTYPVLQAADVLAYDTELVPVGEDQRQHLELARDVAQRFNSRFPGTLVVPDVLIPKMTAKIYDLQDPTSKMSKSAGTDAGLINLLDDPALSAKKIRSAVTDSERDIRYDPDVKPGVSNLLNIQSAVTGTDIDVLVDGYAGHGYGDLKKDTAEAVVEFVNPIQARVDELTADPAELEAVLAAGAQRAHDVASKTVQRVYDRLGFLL

Each number is a percent effect as filed.
How 0% and 100% were set is not recorded. Most values in the screen are low, and negative values occur.
The compounds are a random part of those screened.
A dash means the value is not listed here; it may have been measured.

A: 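Histidine-tRNA ligase, Trypanosoma cruzi CL Brener (UniProt Q4DA54). Enzyme assay of histidyl-tRNA synthetase; the read-out is not stated. Compounds at 30 µM. Higher reads as stronger inhibition (inferred: compounds with an IC50 in retests scored well above the rest). Size under these conditions: about 69,000 compounds, about 31 of them at 50% or above in at least one test.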
B: 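Enzyme assay of the thioesterase domain of polyketide synthase 13; the read-out is not stated. Target: Polyketide synthase Pks13, Mycobacterium tuberculosis (UniProt I6X8D2). Compounds at 30 µM. The record gives no direction; the compounds picked for IC50 retests had high values, so higher reads as stronger inhibition. About 67,000 compounds were tested under these conditions; 0.46% (about 300) showed 50% or more at least once.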
C: 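Enzyme assay of CoaBC with a phosphate dye (Biomol Green) read at 650 nm. Target: Coenzyme A biosynthesis protein CoaBC, Mycobacterium tuberculosis (UniProt P9WNZ1). Tested at 30 µM. Direction is inferred from only a few compounds that gave an IC50; most scored high, so higher reads as stronger inhibition. Most strong results did not repeat in a second test. Of about 67,000 compounds tested this way, about 40 (0.06%) reached 50% or more in at least one test.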
D: 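Cell assay of Leishmania donovani living inside macrophages; the read-out is not stated. Tested at 30 µM. Higher reads as stronger inhibition (inferred: compounds with an IC50 in retests scored well above the rest). Of about 69,000 compounds tested this way, about 1,000 (1.5%) reached 50% or more in at least one test.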
E: 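Lysine-tRNA ligase, Plasmodium falciparum 3D7 (UniProt Q8IDJ8). Enzyme assay of the cytosolic lysyl-tRNA synthetase in 384-well plates, read by luminescence. Concentration: 30 µM. Higher reads as stronger inhibition, judged from the few compounds that gave an IC50. Of about 69,000 compounds tested this way, about 49 (0.071%) reached 50% or more in at least one test.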
F: 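Tryptophan-tRNA ligase, Mycobacterium tuberculosis (UniProt P9WFT3). Enzyme assay of tryptophanyl-tRNA synthetase; the read-out is not stated. Tested at 10 µM. Higher most likely means stronger inhibition; the record gives no direction and few retests gave an IC50. About 65,000 compounds were tested under these conditions; 0.098% (about 64) showed 50% or more at least once.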

| SMILES | A | B | C | D | E | F |
|---|---|---|---|---|---|---|
| `COCC(=O)N1CCC2(CC1)COCCN2CCN(C)C.O=C(O)C(F)(F)F.O=C(O)C(F)(F)F` | - | - | - | -5.462% | - | - |
| `COCC(=O)N1CCc2nc(C)nc(NC(C)C)c2CC1` | 7.407% | -8.529% | 1.481% | 34.1% | 3.503% | - |
| `O=C(c1cnco1)N1CCC(Cc2cccc3ncccc23)CC1` | 6.215% | 4.507% | 1.937% | -22.44% | 0.6216% | 7.637% |
| `[H][C@]12CC[C@]([H])(CN(CC(=O)N(C)C)C1)N(Cc1cc(F)ccc1F)C2` | - | - | - | -10.3% | - | - |
| `CC(C)CCNC(=O)c1sccc1N(C)S(=O)(=O)c1ccccc1` | -5.435% | -51.85% | 1.215% | 26.62% | 1.683% | 3.496% |
| `CC1CCC(NS(=O)(=O)CC(=O)Nc2ccccc2N2CCCC2)CC1` (configuration not stated) | 10.5% | -22.16% | -7.78% | 19.79% | 2.996% | -1.966% |
| `O=C(c1ccoc1)N1CCCC1C1CCN(Cc2ccccc2)CC1` (configuration not stated) | -0.9804% | -29.33% | 7.073% | 6.442% | -4.393% | 0% |
| `O=C(O)C(F)(F)F.[H][C@]12CCC(=O)N(c3ccccc3)[C@@]1([H])CCN2c1ncccn1` | - | - | - | 50.79% | - | - |
| `Cc1nn(C)c(Oc2ccc(Cl)cc2)c1CN1CCOC(CN)C1` (configuration not stated) | 7.263% | 10.57% | -22.18% | 3.142% | 5.302% | -2.599% |
| `COCc1c(Cl)cccc1NC(=O)CNC(=O)C(C)(C)C` | 4.762% | -7.771% | 6.561% | 29.79% | 3.397% | -0.983% |
| `CC/C=C(/C)C(=O)NCc1ccnc(OC2CCOCC2)c1` | 5.882% | -14.02% | 7.661% | 1.785% | -2.888% | -5.206% |
| `COCC1CC2(CCN(C(=O)c3ccco3)CC2)CN1C(C)C.O=C(O)C(F)(F)F` (configuration not stated) | - | - | - | 0.9752% | - | - |
| `O=C(O)C(F)(F)F.O=C(O)C(F)(F)F.[H][C@@]12COC[C@]1(CNC(=O)C1CCC1)CN(Cc1cccnc1)C2` | - | - | - | 23.03% | - | - |
| `Cc1ccccc1-c1noc(CN2CCn3c(nnc3C3CC3)C2)n1` | 3.817% | -18.43% | 1.813% | 9.47% | -2.837% | 1.856% |
| `CS(=O)(=O)NCC1CCCN(C(=O)COCC2CC2)C1` (configuration not stated) | 4.118% | -13.17% | 2.302% | 8.83% | 1.361% | -3.536% |
| `COc1ccc(-c2nc3c([nH]2)CCNC3C(=O)O)c2ccc(C)nc12` (configuration not stated) | 39.11% | 3.155% | 7.969% | -31.48% | 7.897% | -3.961% |
| `CC(C)Cn1cc(NC(=O)c2cccc(N(C)C)c2)cn1` | 1.19% | 6.186% | -2.334% | 20.23% | -1.744% | 1.724% |
| `Cc1ncsc1CN1C[C@@H]2COC[C@]2(COc2ccc(C#N)cn2)C1` | -0.8264% | -19% | 2.796% | - | -4.036% | 2.385% |
| `COc1ccc(C(=O)NS(=O)(=O)c2ccc(CNC(C)=O)s2)cc1` | 6.186% | -20.01% | 2.857% | 21.73% | 2.626% | 0.854% |
| `CN(C)CCOCc1ncn2c1CN(c1ncc(F)cn1)CCC2.O=C(O)C(F)(F)F` | - | - | - | 7.749% | - | - |
| `CCc1nc(CN2CCCC2C(=O)NC)cs1` (configuration not stated) | 3.017% | -15.46% | 1.141% | -0.2893% | 0.3623% | -0.4182% |
| `Cc1nc(N)c2ccc(C3CCCN3)nc2n1.Cl` (configuration not stated) | - | - | - | 28.74% | - | - |
| `c1ccc(CN2CCCC(c3nccnc3-n3ccnc3)C2)cc1` (configuration not stated) | 1.639% | -25.18% | 0.7772% | 8.966% | 1.18% | -5.286% |
| `CC(CNC(=O)c1nc(N2CCOCC2)ncc1Cl)c1ccccc1` (configuration not stated) | -3.947% | -25.11% | - | -1.445% | -0.2733% | 5.16% |
| `CN(C)CCCn1ccnc1C1CCN(C(=O)Cc2cccnc2)CC1` | 4.082% | -9.381% | -1.623% | 27.92% | 6.867% | 3.284% |
| `O=C(CCc1ccccc1F)N1CCCC(OCc2cccnc2)C1` (configuration not stated) | -3.139% | -20.16% | 3.299% | 19.64% | 12.21% | 5.875% |
| `CCSCCC(=O)Nc1ncn(CC(=O)NCc2ccccc2)n1` | 8.714% | -11.12% | -39.73% | 19.14% | 4.672% | -1.243% |
| `CC(=O)N1CCN(Cc2ccc3c(c2)OCCO3)CC(O)C1` (configuration not stated) | -8.696% | -20% | 1.615% | 17.94% | 4.746% | -4.052% |
| `CC(c1ccc(C(=O)NCCc2nc(N)cc(O)n2)o1)N1CCCCC1` (configuration not stated) | 5.464% | -10.9% | 1.711% | -185.5% | 1.751% | 0.8942% |
| `Cc1ccc(NC(=O)C2CCc3ccccc3N2)cc1` (configuration not stated) | 9.836% | 11.47% | 2.2% | 19.33% | 1.142% | -0.8942% |
| `Cc1cccc(C(=O)N2CCSCC2)c1NC(=O)c1ccsc1` | 4.819% | -2.776% | -0.495% | 10.3% | -0.5817% | -0.2075% |
| `Cc1ccc(NC2CCN(C(=O)COC3CCCC3)CC2)nn1` | 3.152% | 3.827% | 11.3% | 34.37% | -2.314% | 2.982% |
| `Cn1cc(CNc2cnn(CCO)c2)c(-c2ccncc2)n1` | 10.34% | 10.55% | 4.519% | 2.882% | 8.975% | -3.216% |
| `O=C(O)C(F)(F)F.O=C(c1ccc(F)cc1)N1CCC2(CC1)CC(N1CCOCC1)C2` | - | - | - | 6.575% | - | - |
| `Cc1cnn(CCNCc2nc(-c3ccccc3Cl)no2)c1` | -1.141% | -6.357% | 9.309% | -12.01% | 3.408% | -1.415% |
| `O=C1CCC2(CCCN(C(=O)Cc3cccnc3)C2)N1` (configuration not stated) | 11.65% | -31.42% | 1.527% | - | 6.447% | 5.255% |
| `CCc1nc(C)sc1CN1CCc2[nH]nc(-c3ccc(F)c(F)c3)c2C1` | 9.497% | -33.45% | 7.258% | 21.68% | 4.396% | -2.807% |
| `Cc1ccc(S(=O)(=O)NC[C@H]2OC[C@@H](NCc3ccncc3)[C@@H]2O)cc1` | -1.087% | -24.46% | 2.428% | 17.37% | -0.5801% | -2.2% |
| `CC(=O)NCc1cc2n(n1)CCN(Cc1ccccc1OC(F)(F)F)C2` | 1.22% | -8.984% | 3.671% | 31.91% | 7.849% | 1.496% |
| `O=C(C1CCC1)N1CCN(C(=O)c2cnccn2)[C@H]2CS(=O)(=O)C[C@H]21` | 1.667% | -14.09% | 8.316% | - | 2.96% | 1.935% |
| `O=S(=O)(c1ccc2c(c1)OCCO2)N1CCC(OCc2ccccn2)C1` (configuration not stated) | 9.211% | -20.62% | - | 2.534% | 1.789% | 5.16% |
| `COc1ccc(Br)cc1NCC(=O)NC(C)(C#N)C1CC1` (configuration not stated) | -0.6369% | -32.84% | - | -21.64% | 1.723% | -1.715% |
| `CCC(C)C(=O)NCc1ccc(-n2cncn2)nc1` (configuration not stated) | -0.8403% | -9.546% | 4.104% | -19.25% | 5.557% | -2.848% |
| `COCCN1CCC2(CC1)CC(c1cccnc1)C(=O)N2C` (configuration not stated) | 7.778% | 11.96% | 4.146% | 10.1% | 2.767% | - |
| `Cc1cc(NCCC(=O)NC2CCCC2)nc(-c2ccncc2)n1` | 3.509% | -8.577% | -1.033% | 0.2122% | 3.265% | 1.004% |
| `O=C(c1cnccn1)N1CCOC2(CCCN(c3ncccc3F)C2)C1` (configuration not stated) | 4.327% | -11.74% | 2.824% | - | 0.9847% | 0% |
| `N#Cc1ccc(NCCC(=O)N2CCCc3ccccc32)nc1` | 13.33% | -5.9% | 2.724% | -8.664% | 7.726% | 0.9497% |
| `Cc1noc(C)c1CN(C)C(=O)COc1cccc(C#N)c1` | 3.333% | -11.93% | 3.361% | 0.5389% | 1.26% | -11.15% |

Measurements from “University of Dundee, Small-Polar-MMV Screening Library” (2021), ChEMBL document CHEMBL3988442.